# Experimental data as given in patent US20240285541A1, “SHELF STABLE ORGANIC NUCLEOTIDE COMPOSITIONS AND METHODS OF MANUFACTURING THE SAME” (Glanbia Nutritionals, Inc., priority 2023, published 2024).
# At least one compound was matched to its structure with a doubt left.
# Test: ATP stability over 362 days, processed under acidic and hot-fill conditions
# Assay type: physicochemical
# Conditions: pH 2.8, hot-fill conditions
# Excerpt: FIG. 5 is a graphical representation 500 of the unexpectedly good results achieved through the method and composition described in connection with FIG. 4. Specifically, the graphical representation 500 illustrates a comparison of ATP stability for a composition or product of the disclosure (specifically, Formula A prepared according to method 400) compared against a control ATP product processed under acidic conditions (pH 2.5) and hot-fill conditions. The ATP stability measurements were calculated over three hundred sixty-two (362 days). For the control ATP, pH 2.8 (Δ), y=116.03e^−0.012x, R^2=0.966. For the encapsulated ATP Formula A, pH 2.8 (Δ), y=100.37e^−0.003x, R^2=0.9591.
# Specifically, Formula A continued to comprise about 33.43 wt % of ATP 100, 200 at the end of the 362 days, compared with the 1.44 wt % of ATP 100, 200 in the control ATP solution.
# FIG. 7 is a graphical representation 700 of the unexpectedly good results achieved through the method and composition described in connection with FIG. 6. Specifically, the graphical representation 700 illustrates a comparison of ATP stability for a composition or product of the disclosure (specifically, Formula B prepared according to method 600) compared against a control ATP product processed under acidic conditions (pH 2.8) and hot-fill conditions. ATP stability measurements were calculated over three hundred sixty-two (362) days. […]
smiles,measurement,value
"Nc1ncnc2c1ncn2[C@@H]1O[C@H](COP(=O)(O)OP(=O)([O-])OP(=O)([O-])O)[C@@H](O)[C@H]1O.[Na+].[Na+] [control ATP, adenosine triphosphate (ATP) disodium salt]","ATP stability curve, exponential fit (y versus days x)",y=116.03e^−0.012x
